Assay results reported in article doi:10.1101/2024.01.20.576408.
Results are given in words; binding and its absence hold for the method and conditions named. Some results given as binding are weak or reduced against the parent protein; the word gives no strength. For part of these data: Sequences can lack the tags named with a protein.

Sequences of proteins named here, by UniProt entry; tags and fusion partners are left off.
UniProt Q08689: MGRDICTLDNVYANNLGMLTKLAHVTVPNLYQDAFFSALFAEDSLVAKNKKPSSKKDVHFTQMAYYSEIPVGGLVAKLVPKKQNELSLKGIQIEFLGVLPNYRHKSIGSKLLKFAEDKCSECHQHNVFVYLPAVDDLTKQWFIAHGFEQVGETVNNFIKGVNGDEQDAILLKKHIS

What was measured:
[1] = target: Nat5, C-terminally tagged (S. cerevisiae) (UniProt Q08689); assay: selective ribosome profiling
[2] = target: T1, Ski3, C-terminally HA-tagged (S. cerevisiae) (UniProt P17883); assay: RNA immunoprecipitation qPCR
T1 sequence: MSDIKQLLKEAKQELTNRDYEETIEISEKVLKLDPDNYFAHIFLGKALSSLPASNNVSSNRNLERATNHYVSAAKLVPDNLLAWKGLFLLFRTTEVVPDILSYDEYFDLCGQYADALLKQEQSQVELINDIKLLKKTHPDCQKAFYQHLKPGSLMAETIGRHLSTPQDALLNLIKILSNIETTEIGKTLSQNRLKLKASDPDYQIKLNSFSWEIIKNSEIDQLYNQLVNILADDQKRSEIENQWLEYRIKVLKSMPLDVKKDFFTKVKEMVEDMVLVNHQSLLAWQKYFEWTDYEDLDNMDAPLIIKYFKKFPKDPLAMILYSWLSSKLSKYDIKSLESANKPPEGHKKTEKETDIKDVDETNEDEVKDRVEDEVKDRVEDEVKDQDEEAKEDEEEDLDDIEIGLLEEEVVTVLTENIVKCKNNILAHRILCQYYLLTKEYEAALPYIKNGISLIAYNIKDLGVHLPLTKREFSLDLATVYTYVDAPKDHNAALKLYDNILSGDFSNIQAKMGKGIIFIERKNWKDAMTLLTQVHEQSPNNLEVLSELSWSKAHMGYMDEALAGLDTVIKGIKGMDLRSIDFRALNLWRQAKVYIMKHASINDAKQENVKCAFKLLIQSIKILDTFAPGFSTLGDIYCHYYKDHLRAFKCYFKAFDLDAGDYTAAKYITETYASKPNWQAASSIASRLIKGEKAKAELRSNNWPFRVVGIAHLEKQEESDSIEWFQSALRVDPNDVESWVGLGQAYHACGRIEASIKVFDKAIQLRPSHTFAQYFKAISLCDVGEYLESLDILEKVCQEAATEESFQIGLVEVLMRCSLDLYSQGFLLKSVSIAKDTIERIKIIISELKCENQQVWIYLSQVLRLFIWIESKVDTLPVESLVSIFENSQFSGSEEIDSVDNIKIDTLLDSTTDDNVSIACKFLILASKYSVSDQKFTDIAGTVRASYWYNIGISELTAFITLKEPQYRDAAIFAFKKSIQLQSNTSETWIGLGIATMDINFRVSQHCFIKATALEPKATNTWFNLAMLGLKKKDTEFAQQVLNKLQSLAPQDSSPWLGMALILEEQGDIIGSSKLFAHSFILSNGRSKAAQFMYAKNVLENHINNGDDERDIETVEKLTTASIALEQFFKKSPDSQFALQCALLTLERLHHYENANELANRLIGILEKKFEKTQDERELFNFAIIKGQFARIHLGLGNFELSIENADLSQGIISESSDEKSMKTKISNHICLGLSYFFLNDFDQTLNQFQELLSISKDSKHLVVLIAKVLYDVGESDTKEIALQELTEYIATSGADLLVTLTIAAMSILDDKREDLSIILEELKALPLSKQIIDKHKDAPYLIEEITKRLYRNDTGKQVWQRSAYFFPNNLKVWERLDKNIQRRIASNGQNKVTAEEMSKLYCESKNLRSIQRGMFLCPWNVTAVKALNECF

Rrn7 (S. cerevisiae) = target: T2, Rrn7 (S. cerevisiae) (UniProt P40992); assay: RNA immunoprecipitation qPCR
T2 sequence: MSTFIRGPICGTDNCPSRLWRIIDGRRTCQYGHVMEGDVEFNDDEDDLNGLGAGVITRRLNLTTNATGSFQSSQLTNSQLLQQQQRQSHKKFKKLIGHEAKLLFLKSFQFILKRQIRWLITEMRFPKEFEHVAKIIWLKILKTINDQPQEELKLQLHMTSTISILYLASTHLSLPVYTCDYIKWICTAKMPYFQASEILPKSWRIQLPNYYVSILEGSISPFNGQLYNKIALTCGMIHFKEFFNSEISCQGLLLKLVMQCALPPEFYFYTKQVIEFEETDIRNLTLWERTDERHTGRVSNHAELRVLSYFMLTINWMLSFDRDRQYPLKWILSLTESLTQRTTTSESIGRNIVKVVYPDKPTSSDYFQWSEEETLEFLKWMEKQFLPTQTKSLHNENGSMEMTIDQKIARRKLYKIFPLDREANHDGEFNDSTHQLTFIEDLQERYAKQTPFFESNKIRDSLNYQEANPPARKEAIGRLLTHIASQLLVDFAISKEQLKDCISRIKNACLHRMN

B1: Nat1, nascent chain on translating ribosomes (protein, UniProt P12945 1-854)
chain: MSRKRSTKPKPAAKIALKKENDQFLEALKLYEGKQYKKSLKLLDAILKKDGSHVDSLALKGLDLYSVGEKDDAASYVANAIRKIEGASASPICCHVLGIYMRNTKEYKESIKWFTAALNNGSTNKQIYRDLATLQSQIGDFKNALVSRKKYWEAFLGYRANWTSLAVAQDVNGERQQAINTLSQFEKLAEGKISDSEKYEHSECLMYKNDIMYKAASDNQDKLQNVLKHLNDIEPCVFDKFGLLERKATIYMKLGQLKDASIVYRTLIKRNPDNFKYYKLLEVSLGIQGDNKLKKALYGKLEQFYPRCEPPKFIPLTFLQDKEELSKKLREYVLPQLERGVPATFSNVKPLYQRRKSKVSPLLEKIVLDYLSGLDPTQDPIPFIWTNYYLSQHFLFLKDFPKAQEYIDAALDHTPTLVEFYILKARILKHLGLMDTAAGILEEGRQLDLQDRFINCKTVKYFLRANNIDKAVEVASLFTKNDDSVNGIKDLHLVEASWFIVEQAEAYYRLYLDRKKKLDDLASLKKEVESDKSEQIANDIKENQWLVRKYKGLALKRFNAIPKFYKQFEDDQLDFHSYCMRKGTPRAYLEMLEWGKALYTKPMYVRAMKEASKLYFQMHDDRLKRKSDSLDENSDEIQNNGQNSSSQKKKAKKEAAAMNKRKETEAKSVAAYPSDQDNDVFGEKLIETSTPMEDFATEFYNNYSMQVREDERDYILDFEFNYRIGKLALCFASLNKFAKRFGTTSGLFGSMAIVLLHATRNDTPFDPILKKVVTKSLEKEYSENFPLNEISNNSFDWLNFYQEKFGKNDINGLLFLYRYRDDVPIGSSNLKEMIISSLSPLEPHSQNEILQYYL
B1 was tested, and the binding [1] was “binds”.

B2: Ski2, nascent chain on translating ribosomes (protein, UniProt P35207 1-1287)
chain: MSEGFSSSSIQELYQSLKEITNNADVELFEDRITKLDFESTDEPKHANDIIKDRFLRPSNALPWSLLDMVQDVPHTSSPEDCSGKLDYKELLKVPDPINRTSYQFKRTGLEGKISGYKEEVDLKEVANANASNSLSITRSINHNQNSVRGSTAQLPFTPGGIPMKSVKTDSEQNGSSTMANATKLLHKDGQGLFDIPEGMNRGIKPMDSPAENEDQNGQFKELKQLNEIDNELDIRIEANEAKLKEEEKSAKSISEEIMEEATEETTADNADDAEIDELLPIGIDFGRTKPVSKSVPVKKEWAHVVDLNHKIENFDELIPNPARSWPFELDTFQKEAVYHLEQGDSVFVAAHTSAGKTVVAEYAIAMAHRNMTKTIYTSPIKALSNQKFRDFKETFDDVNIGLITGDVQINPDANCLIMTTEILRSMLYRGADLIRDVEFVIFDEVHYVNDQDRGVVWEEVIIMLPQHVKFILLSATVPNTYEFANWIGRTKQKNIYVISTPKRPVPLEINIWAKKELIPVINQNSEFLEANFRKHKEILNGESAKGAPSKTDNGRGGSTARGGRGGSNTRDGRGGRGNSTRGGANRGGSRGAGAIGSNKRKFFTQDGPSKKTWPEIVNYLRKRELLPMVVFVFSKKRCEEYADWLEGINFCNNKEKSQIHMFIEKSITRLKKEDRDLPQILKTRSLLERGIAVHHGGLLPIVKELIEILFSKGFIKVLFATETFAMGLNLPTRTVIFSSIRKHDGNGLRELTPGEFTQMAGRAGRRGLDSTGTVIVMAYNSPLSIATFKEVTMGVPTRLQSQFRLTYNMILNLLRIEALRVEEMIKYSFSENAKETLQPEHEKQIKVLQEELQTIEYKSCEICDNDIEKFLELMLAYKEATVNLMQEMVKSPSILHILKEGRLVAFRDPNDCLKLGFVFKVSLKDAVCVIMTFTKPYKLPNGEPNHLIYFPKADGYRRRNFPKFQKTDFYMEEVPVTAIEVITKRKFAAPLGKVIKKDVAALNEFNAETNNILDGKTLKEAINIEKQGLKIHQILLDRTNIRDEIFKLKSIKCPNLSQHIVPKFKAHVIKKKIEELYHLMSDQNLSLLPDYEKRLAVLKDTEFIDQNHNVLLKGRVACEINSGYELVLTELILDNFLGSFEPEEIVALLSVFVYEGKTREEEPPIVTPRLAKGKQRIEEIYKKMLCVFNTHQIPLTQDEAEFLDRKRFAMMNVVYEWARGLSFKEIMEMSPEAEGTVVRVITWLDEICREVKTASIIIGNSTLHMKMSRAQELIKRDIVFAASLYL
In the case of B2, the binding [2] is reported as “binds”.

B3: Rrn6 (protein, UniProt P32786 1-894)
chain: MSEGQIPSSDVLGSQLGVGVQGASLYCPQENYTTKKQEKPQWLRPVDDTLAEDALDLHIVVKSLLCDTAIRYISDDKVLQESDADDDLITSDIDEDTDNQGDTSIVVNPVIPVVPKDVHFFKKVDVGNDSMFGVNCDTPVSFQDYIPSDLLRNLDDTLQESTNSSRPMQDAFFWDPTVANRLDSQYIQTASDLRNYRDGTEIIAYASGKTGSVLNIAVLTRQNTLHLNRHNNVTSIELHSPIKSIKIPGASESIGRRSNLVGIITENSFQIFRIESVHSRSCDVMVSSSEPLYFVEIDDLQVVDFAFNPWDLQQFAIIDIKGNWSIGRIPKNFNNNNKRKLQLIDNLHGTIFDPEELSSWKRIEWFSHFQKILVFDRSKMIEIDFMNNWQTEVVQAKAWSNIRDYKRIDDKNGILLTSREIIIVGASESNDPVRRISWKHDLDPDDTTLRITVQKVKKPDHILLVAFVYSMRHKRIYMHVFSHRKANLFQSLGCSTVLEIPGGTPTGIETILTLDHIDDESRREEDADENFELVVDFLVKLRNSSEVYYYALSNTQNSEPNKQETPIIVDHPEWASLFNNADEREKESIGALVSQIKLKERERISRVQNLIEHENSHDEDKYLQDLGYRLSIATNELLESWQKTKDESILSGSLSHSKLKNLLENSDSFASIPEFSSLLDQFFQYYQDQDVTFIGFEKLLHLFLHEDVPGLDIFYNKLLQCWVLVSPQAELLTKEIVKDIIWSLARLEKPSLFEPIQNEISRSLSGPYQDIISSWDMDDINEEDESNEFNFDSQFSAPFNGRPPFNLNSQSQIPTIKSSQSSGLARRKRILKTQSQKATPLSQSTQNLSVLPDSMTPAFTLMQPPSSQISFVNDSQPRNSQKAKKKKKRIRGFG
For B3, the binding (Rrn7 (S. cerevisiae)) was “binds”.
